Reference: PubChem BioAssay AID328 (DTP/NCI, 2004)
The list is a part of this screen's results and no random one: it is rich in T/C values a quarter to a half above the control, in often repeated tests (any T/C) and in doses without a T/C. Other doses and runs of a compound stand elsewhere. T/C is the treated group as % of the vehicle group. Some entries give survivors of the animals treated and no T/C: the source holds a T/C of zero for them, seemingly a mark for toxic or unscored doses. Some survivor counts are full or nearly so, which does not show that the dose was tolerated: the source hardly ever lists a survival T/C far under the control, and the zero likely stands for such cases as well. Survivors were counted at the toxicity check, usually on the fifth day, unless a day is given; later deaths do not show. Schedule codes are those of the source, read here as Q, the interval in days (D) or hours (H), X, the number of doses. Where survival is the endpoint, this PubChem deposit counts one and a half times the control or more as active, and values a quarter to a half above the control carry no call in these data; other NCI protocols may use other cut-offs. Some doses were run more than once; the results are listed from low to high. Some T/C values carry the count of animals alive at the toxicity check (mostly the fifth day); where none is given, no animal had died by that day. Non-standard residues stand in square brackets, D forms with d. Residues, ends and D or L forms follow the SMILES beside them. ξ: configuration not given here. ξLac(3-iPr) = CC(C)CC(O)C(=O)O; NMeV = CN[CH](C(=O)O)C(C)C; NMeA = CN[CH](C)C(=O)O; βAla = NCCC(=O)O

System: BDF1 mice, P388 leukemia ip, median survival T/C
Assay: NCI In Vivo Anticancer Drug Screen. Data for tumor model P388 Leukemia (intraperitoneal) in B6D2F1 (BDF1) mice
Settings: T/C endpoint: median survival time, higher T/C = longer survival
Summary of the method: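 Antitumour effect was judged in vivo: survival in drug-treated mice, normalised to that of vehicle-dosed controls, gives the reported T/C.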

[1] = dose: 100.0 mg/kg/injection, schedule: Q01DX009 (ip), vehicle: saline with Tween-80
[2] = dose: 400.0 mg/kg/injection, schedule: Q01DX009 (ip), vehicle: saline with Tween-80
[3] = dose: 200.0 mg/kg/injection, schedule: Q01DX009 (ip), vehicle: saline with Tween-80
[4] = dose: 400.0 mg/kg/injection, schedule: Q04DX003 (ip), vehicle: saline with Tween-80
[5] = dose: 1.25 mg/kg/injection, schedule: Q01DX009 (ip), vehicle: saline
[6] = dose: 12.5 mg/kg/injection, schedule: Q04DX003 (ip), vehicle: saline
[7] = dose: 400.0 mg/kg/injection, schedule: Q01DX009 (ip), vehicle: Klucel (hydroxypropylcellulose) (HPC)
[8] = dose: 25.0 mg/kg/injection, schedule: Q04DX003 (ip), vehicle: saline with Tween-80
[9] = dose: 50.0 mg/kg/injection, schedule: Q04DX003 (ip), vehicle: saline with Tween-80
[10] = dose: 75.0 mg/kg/injection, schedule: Q04DX003 (ip), vehicle: saline with Tween-80
[11] = dose: 50.0 mg/kg/injection, schedule: Q01DX009 (ip), vehicle: saline with Tween-80
[12] = dose: 200.0 mg/kg/injection, schedule: Q04DX003 (ip), vehicle: saline with Tween-80
[13] = dose: 100.0 mg/kg/injection, schedule: Q04DX003 (ip), vehicle: saline with Tween-80

With `CC1(C)N=C(N)N=C(N)N1c1cccc(CC(=O)Nc2ccc(S(=O)(=O)F)cc2)c1` the T/C (dose: 66.0 mg/kg/injection, schedule: Q01DX009 (ip), vehicle: saline with Tween-80) was 127 % of control, the T/C [1] was 140 % of control [5 of 6 alive] and the survivor count (dose: 150.0 mg/kg/injection, schedule: Q01DX009 (ip), vehicle: saline with Tween-80) was 0 of 6. For the same compound, the survivor count [2] was 4 of 6.
`Nc1nc(N)c(-c2ccc(Cl)c(Cl)c2)c(COc2cccc(CNC(=O)c3cccc(S(=O)(=O)F)c3)c2)n1` was tested, and the T/C (dose: 130.0 mg/kg/injection, schedule: Q01DX009 (ip), vehicle: Klucel (hydroxypropylcellulose) (HPC)) was 145 % of control, the T/C (dose: 132.0 mg/kg/injection, schedule: Q04DX003 (ip), vehicle: Klucel (hydroxypropylcellulose) (HPC)) was 140 % of control and the T/C (dose: 200.0 mg/kg/injection, schedule: Q04DX003 (ip), vehicle: Klucel (hydroxypropylcellulose) (HPC)) was 145 % of control.
With `Cn1c2nc(=O)n(-c3ccccc3)c(=O)c-2nc2ccccc21` the survivor count [1] was 1 of 6 and the survivor count [3] was 0 of 6.
In the case of `O=C(NNC(=O)c1ccc([N+](=O)[O-])cc1)c1ccccc1`, the survivor count (dose: 12.5 mg/kg/injection, schedule: Q01DX009 (ip), vehicle: Klucel (hydroxypropylcellulose) (HPC)) is reported as 6 of 6 and the survivor count (dose: 25.0 mg/kg/injection, schedule: Q01DX009 (ip), vehicle: Klucel (hydroxypropylcellulose) (HPC)) is reported as 6 of 6.
With `COCC(O)CCl` (stereo not given) the survivor count [4] was 2 of 6.
`C[C@]12CC[C@H]3[C@@H](CCC4=C[C@@H](OC5OCC(OC6OC(CO)C(O)C(O)C6O)C(O)C5O)CC[C@@]43C=O)[C@@]1(O)CCC2C1=CC(=O)OC1` (stereo not given in full) was tested, and the T/C [5] was 133 % of control.
For `NC(=O)NN=C1CCC(c2ccccc2)CC1` (stereo not given), the survivor count [3] was 1 of 6.
With `CC1(C)O[Se](=O)OC1(C)C` the survivor count [6] was 1 of 6 and the survivor count (dose: 25.0 mg/kg/injection, schedule: Q04DX003 (ip), vehicle: saline) was 0 of 6.
For `NS(=O)(=O)CS(=O)(=O)Oc1ccccc1`, the survivor count (dose: 400.0 mg/kg/injection, schedule: Q01DX001 (ip), vehicle: saline with Tween-80) was 1 of 6.
In the case of `CCCCCCCCCCC(C(=O)O)C1(C(=O)O)CCC(=O)O1` (stereo not given), the survivor count [7] is reported as 3 of 6.
`CCC12C=CCN3CCC4(c5ccc(OC)cc5N(C)C4C(O)(C(=O)OC)C1OC(C)=O)C32` (stereo not given) (tested in a mixture with another compound) was tested, and the survivor count (dose: 0.5 mg/kg/injection, schedule: Q01DX009 (ip), vehicle: water) was 5 of 6.
`Clc1nc(SC2=NCCN2)c2[nH]cnc2n1` was tested, and the T/C [8] was 141 % of control, the T/C (dose: 33.0 mg/kg/injection, schedule: Q04DX003 (ip), vehicle: saline with Tween-80) was 129 % of control and the T/C [9] was 127 and 137 % of control. The T/C [10] was 125 % of control [4 of 6 alive] and the survivor count [10] was 1 of 6.
`CC(C)=CCC1=C(OC2OC(CO)C(O)C(O)C2O)C(=O)c2ccccc2C1=O` (stereo not given) was tested, and the T/C (dose: 6.25 mg/kg/injection, schedule: Q01DX009 (ip), vehicle: saline with Tween-80) was 140 % of control, the T/C (dose: 12.5 mg/kg/injection, schedule: Q01DX009 (ip), vehicle: saline with Tween-80) was 133 % of control and the survivor count [11] was 4 of 6. The survivor count [1] was 1 of 6 and the survivor count [3] was 0 of 6.
For `Cc1ccc(C[P+](c2ccccc2)(c2ccccc2)c2ccccc2)cc1`, the survivor count (dose: 20.0 mg/kg/injection, schedule: Q01DX010 (ip), vehicle: saline) was 4 of 6.
For `O=C(NO)c1cc(O)c(O)c(O)c1`, the T/C (dose: 100.0 mg/kg/injection, schedule: Q01DX005 (ip), vehicle: distilled water + Tween-80) was 140 % of control and the survivor count (dose: 800.0 mg/kg/injection, schedule: Q01DX005 (ip), vehicle: distilled water + Tween-80) was 4 of 6.
`O=S1(=O)CC2(N3CCOCC3)C3CCC(C3)C21` (stereo not given) was tested, and the T/C [12] was 129 % of control.
With `O=c1oc(-c2cc([N+](=O)[O-])ccc2Cl)nc2ccccc12` the T/C [9] was 133 % of control.
With `COc1ccc2nc3cc(Cl)ccc3c(NCCNCCNCCNc3c4ccc(Cl)cc4nc4ccc(OC)cc34)c2c1` the survivor count [1] was 5 of 6.
With `CC1OC(OC2CCCc3c(O)c4c(c(O)c32)C(=O)c2ccccc2C4=O)CC(N)C1O` (stereo not given) the survivor count (dose: 32.0 mg/kg/injection, schedule: Q01DX009 (ip), vehicle: water) was 0 of 6.
With `NC(=O)c1cn(C2OC(CO)C(O)C2O)c2ncn3ccnc3c12` (stereo not given) the T/C [6] was 126 % of control and the T/C (dose: 50.0 mg/kg/injection, schedule: Q04DX003 (ip), vehicle: saline) was 128 % of control.
`Cc1cc(C)c(C#N)c(=O)[nH]1` was tested, and the survivor count (dose: 200.0 mg/kg/injection, schedule: Q01DX009 (ip), vehicle: saline) was 5 of 6.
For `C[N+](C)(C)c1ccc2c(c1)CCC/C2=N\N`, the survivor count (dose: 12.5 mg/kg/injection, schedule: Q04DX003 (ip), vehicle: saline with Tween-80) was 2 of 6, the survivor count [8] was 0 of 6 and the survivor count [13] was 0 of 6. For the same compound, the survivor count [12] was 0 of 6 and the survivor count [4] was 0 of 6.
In the case of `O=c1cc(O)cc(/C=C/c2ccc(O)cc2)o1`, the T/C [2] is reported as 131 % of control.
For `CCC[N+](CCC)(CCC)CCC.N#CN=C([SH2+])[SH2+].N#CN=C([SH2+])[SH2+].[Pt+2]`, the survivor count (dose: 100.0 mg/kg/injection, schedule: Q04DX003 (ip), vehicle: saline) was 1 of 6 and the survivor count (dose: 200.0 mg/kg/injection, schedule: Q04DX003 (ip), vehicle: saline) was 5 of 6.
With `Cc1nc2[nH][nH]c(=O)c2nc1C` the T/C [7] was 130 % of control.
`CC(=O)/C=C/c1ccco1` was tested, and the survivor count (dose: 100.0 mg/kg/injection, schedule: Q01DX009 (ip), vehicle: DMSO) was 3 of 6 and the survivor count (dose: 100.0 mg/kg/injection, schedule: Q04DX003 (ip), vehicle: DMSO) was 5 of 6.
In the case of `CCCNCC(O)c1cc(C(F)(F)F)nc2c(C(F)(F)F)cccc12` (stereo not given), the survivor count [3] is reported as 0 of 6.
For `Clc1nc2ccccc2n2nnnc12`, the survivor count (dose: 50.0 mg/kg/injection, schedule: Q01DX009 (ip), vehicle: saline) was 5 of 7.
In the case of `CNNCc1ccc(/C=N/NC(N)=S)cc1`, the survivor count (dose: 100.0 mg/kg/injection, schedule: Q01DX009 (ip), vehicle: water) is reported as 5 of 6.
With `CCC(C)C1NC(=O)C2CCCN2C(=O)C(CC(C)C)OC(=O)CCNC(=O)C(C)N(C)C(=O)C(C(C)C)N(C)C1=O` (stereo not given) (cyclo([ξLac(3-iPr)]PI[NMeV][NMeA][βAla]); configuration not given here) the T/C [5] was 125 % of control.
With `O=NN(CCF)C(=O)NC1CCC(NC(=O)N(CCF)N=O)CC1` (stereo not given) the survivor count (dose: 200.0 mg/kg/injection, schedule: Q04DX003 (ip), vehicle: alcohol) was 4 of 6, the survivor count (dose: 300.0 mg/kg/injection, schedule: Q04DX003 (ip), vehicle: alcohol) was 0 of 6 and the survivor count [4] was 0 of 6.
For `CCCSc1ncnc2nc[nH]c12`, the survivor count (dose: 250.0 mg/kg/injection, schedule: Q01DX010 (ip), vehicle: saline) was 5 of 6.
In the case of `Cc1ccc(NS(=O)(=O)c2ccc([N+](=O)[O-])cc2)cc1`, the T/C (dose: 22.0 mg/kg/injection, schedule: Q01DX009 (ip), vehicle: saline with Tween-80) is reported as 125 % of control, the survivor count (dose: 25.0 mg/kg/injection, schedule: Q01DX009 (ip), vehicle: saline with Tween-80) is reported as 6 of 6 and the T/C [11] is reported as 131 % of control. For the same compound, the survivor count [3] was 6 of 6.
For `O=C(/C(=C\c1ccccc1)CN1CCOCC1)c1ccc(Br)cc1`, the survivor count (dose: 100.0 mg/kg/injection, schedule: Q01DX009 (ip), vehicle: Klucel (hydroxypropylcellulose) (HPC)) was 4 of 6.
In the case of `COc1cc(Br)c(/C=C/[N+](=O)[O-])cc1OC`, the T/C [9] is reported as 132 % of control and the T/C [13] is reported as 125 % of control.
